Experimental data: publication PMC6375878
Results are given in words; binding and its absence hold for the method and conditions named. Binding seen in cells or lysates may run through a third protein. Some binding calls cover weakened binding; strength is not graded here.

Chains of the proteins cited; added tags and fusions are not shown. Residues count along the entry.
UniProt Q9BZS1, residues 1-417: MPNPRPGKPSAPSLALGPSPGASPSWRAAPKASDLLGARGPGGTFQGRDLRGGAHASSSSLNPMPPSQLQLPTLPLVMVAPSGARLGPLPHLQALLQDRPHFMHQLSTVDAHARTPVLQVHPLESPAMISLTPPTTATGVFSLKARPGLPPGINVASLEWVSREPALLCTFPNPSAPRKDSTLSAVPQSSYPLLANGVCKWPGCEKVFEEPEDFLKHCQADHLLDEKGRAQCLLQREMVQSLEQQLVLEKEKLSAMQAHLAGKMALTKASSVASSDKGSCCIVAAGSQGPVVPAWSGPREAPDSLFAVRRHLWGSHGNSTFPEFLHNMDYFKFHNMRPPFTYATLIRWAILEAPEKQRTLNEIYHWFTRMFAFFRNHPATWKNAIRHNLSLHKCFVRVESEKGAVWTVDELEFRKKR
UniProt O14744: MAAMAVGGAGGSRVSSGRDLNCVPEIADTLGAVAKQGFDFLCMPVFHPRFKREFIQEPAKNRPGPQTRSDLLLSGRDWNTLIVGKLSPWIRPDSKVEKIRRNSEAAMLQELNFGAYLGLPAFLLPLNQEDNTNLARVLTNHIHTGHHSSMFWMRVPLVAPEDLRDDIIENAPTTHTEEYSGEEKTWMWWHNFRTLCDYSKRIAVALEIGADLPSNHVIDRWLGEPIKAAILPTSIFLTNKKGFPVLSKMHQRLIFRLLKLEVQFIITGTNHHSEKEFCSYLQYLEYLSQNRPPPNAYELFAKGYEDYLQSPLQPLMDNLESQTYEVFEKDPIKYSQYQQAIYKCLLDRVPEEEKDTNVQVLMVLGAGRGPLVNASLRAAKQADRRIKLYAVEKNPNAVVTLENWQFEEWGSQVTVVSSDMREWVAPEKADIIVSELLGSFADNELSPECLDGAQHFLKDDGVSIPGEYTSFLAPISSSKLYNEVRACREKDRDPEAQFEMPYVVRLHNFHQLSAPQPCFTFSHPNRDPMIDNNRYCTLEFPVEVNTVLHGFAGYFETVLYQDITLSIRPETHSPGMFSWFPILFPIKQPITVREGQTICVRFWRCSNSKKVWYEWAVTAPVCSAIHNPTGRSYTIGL

Experiments:
[1] = target: FOXP3, endogenous in human Tregs (human (endogenous in expanded human Tregs)) (UniProt Q9BZS1); experiment: co-IP; endogenous proteins; expanded human Tregs lysed in RIPA buffer; anti-FOXP3, anti-PRMT5 or IgG overnight at 4°C, Protein G-Sepharose 1 h at 4°C; Western blot
HA-FOXP3 (human) = HA-FOXP3 (human) (UniProt Q9BZS1); experiment: co-IP; 293T co-transfected with HA-FOXP3 and FLAG-PRMT; lysate with anti-HA or anti-FLAG agarose 2 h at 4°C, washed three times with lysis buffer; blot with anti-Flag M2 or anti-HA peroxidase

binding [1]	binding (HA-FOXP3 (human))	Substance
binds		PRMT5, endogenous in human Tregs (from UniProt O14744 1-637) (enzyme)
	binds	FLAG-PRMT5 (from UniProt O14744 1-637) (enzyme)
